Drawing on doi:10.64898/2025.12.05.692677, this text covers binding for 3 substances.

No constants are given. Whether binding was seen depends on the method and setting. In cells and extracts the contact can be indirect. Here binding means that the protein was enriched with, or labelled near, the bait; the list need not be complete.

The target in the test is KOG1-FLAG (Neurospora crassa) (UniProt Q7SI31). Kind of test: affinity purification with mass spectrometry.
On to LST8 (NCU04281) (from UniProt Q1K788), for which the binding entry was “binds”.
The entry for “Serine/Threonine protein kinase TOR (NCU05608) (from UniProt Q7S6V7) (enzyme)” is “binds”; for TCO89 (NCU04795) (from UniProt Q7S6P0) it is “binds”.
